This is one part of the list.

Amino acid sequences for entries named in this document (tags omitted). A change or cut given only in a name is not applied to a line headed by its entry.
UniProt P13807: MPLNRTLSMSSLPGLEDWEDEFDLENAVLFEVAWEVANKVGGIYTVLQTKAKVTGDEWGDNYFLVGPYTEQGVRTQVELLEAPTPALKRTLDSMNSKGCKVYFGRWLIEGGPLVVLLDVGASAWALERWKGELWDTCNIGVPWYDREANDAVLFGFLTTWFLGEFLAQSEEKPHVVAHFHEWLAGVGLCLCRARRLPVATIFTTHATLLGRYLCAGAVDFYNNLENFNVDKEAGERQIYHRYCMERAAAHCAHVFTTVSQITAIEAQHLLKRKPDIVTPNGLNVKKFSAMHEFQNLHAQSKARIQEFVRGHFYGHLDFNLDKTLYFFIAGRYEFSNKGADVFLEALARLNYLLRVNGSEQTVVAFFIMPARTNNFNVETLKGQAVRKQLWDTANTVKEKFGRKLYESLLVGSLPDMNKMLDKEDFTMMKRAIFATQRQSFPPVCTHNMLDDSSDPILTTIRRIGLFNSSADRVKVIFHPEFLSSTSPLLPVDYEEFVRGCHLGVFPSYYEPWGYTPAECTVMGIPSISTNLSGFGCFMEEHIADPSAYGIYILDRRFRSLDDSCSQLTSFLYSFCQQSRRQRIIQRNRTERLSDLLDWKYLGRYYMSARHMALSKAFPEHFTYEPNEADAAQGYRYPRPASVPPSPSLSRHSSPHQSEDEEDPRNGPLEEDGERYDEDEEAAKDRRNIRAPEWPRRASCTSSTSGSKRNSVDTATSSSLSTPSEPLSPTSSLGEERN
UniProt P02724: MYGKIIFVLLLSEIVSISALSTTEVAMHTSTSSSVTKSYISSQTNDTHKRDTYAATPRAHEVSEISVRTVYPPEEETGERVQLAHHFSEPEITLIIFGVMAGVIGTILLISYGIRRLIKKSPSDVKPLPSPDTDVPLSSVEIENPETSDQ
UniProt Q15751: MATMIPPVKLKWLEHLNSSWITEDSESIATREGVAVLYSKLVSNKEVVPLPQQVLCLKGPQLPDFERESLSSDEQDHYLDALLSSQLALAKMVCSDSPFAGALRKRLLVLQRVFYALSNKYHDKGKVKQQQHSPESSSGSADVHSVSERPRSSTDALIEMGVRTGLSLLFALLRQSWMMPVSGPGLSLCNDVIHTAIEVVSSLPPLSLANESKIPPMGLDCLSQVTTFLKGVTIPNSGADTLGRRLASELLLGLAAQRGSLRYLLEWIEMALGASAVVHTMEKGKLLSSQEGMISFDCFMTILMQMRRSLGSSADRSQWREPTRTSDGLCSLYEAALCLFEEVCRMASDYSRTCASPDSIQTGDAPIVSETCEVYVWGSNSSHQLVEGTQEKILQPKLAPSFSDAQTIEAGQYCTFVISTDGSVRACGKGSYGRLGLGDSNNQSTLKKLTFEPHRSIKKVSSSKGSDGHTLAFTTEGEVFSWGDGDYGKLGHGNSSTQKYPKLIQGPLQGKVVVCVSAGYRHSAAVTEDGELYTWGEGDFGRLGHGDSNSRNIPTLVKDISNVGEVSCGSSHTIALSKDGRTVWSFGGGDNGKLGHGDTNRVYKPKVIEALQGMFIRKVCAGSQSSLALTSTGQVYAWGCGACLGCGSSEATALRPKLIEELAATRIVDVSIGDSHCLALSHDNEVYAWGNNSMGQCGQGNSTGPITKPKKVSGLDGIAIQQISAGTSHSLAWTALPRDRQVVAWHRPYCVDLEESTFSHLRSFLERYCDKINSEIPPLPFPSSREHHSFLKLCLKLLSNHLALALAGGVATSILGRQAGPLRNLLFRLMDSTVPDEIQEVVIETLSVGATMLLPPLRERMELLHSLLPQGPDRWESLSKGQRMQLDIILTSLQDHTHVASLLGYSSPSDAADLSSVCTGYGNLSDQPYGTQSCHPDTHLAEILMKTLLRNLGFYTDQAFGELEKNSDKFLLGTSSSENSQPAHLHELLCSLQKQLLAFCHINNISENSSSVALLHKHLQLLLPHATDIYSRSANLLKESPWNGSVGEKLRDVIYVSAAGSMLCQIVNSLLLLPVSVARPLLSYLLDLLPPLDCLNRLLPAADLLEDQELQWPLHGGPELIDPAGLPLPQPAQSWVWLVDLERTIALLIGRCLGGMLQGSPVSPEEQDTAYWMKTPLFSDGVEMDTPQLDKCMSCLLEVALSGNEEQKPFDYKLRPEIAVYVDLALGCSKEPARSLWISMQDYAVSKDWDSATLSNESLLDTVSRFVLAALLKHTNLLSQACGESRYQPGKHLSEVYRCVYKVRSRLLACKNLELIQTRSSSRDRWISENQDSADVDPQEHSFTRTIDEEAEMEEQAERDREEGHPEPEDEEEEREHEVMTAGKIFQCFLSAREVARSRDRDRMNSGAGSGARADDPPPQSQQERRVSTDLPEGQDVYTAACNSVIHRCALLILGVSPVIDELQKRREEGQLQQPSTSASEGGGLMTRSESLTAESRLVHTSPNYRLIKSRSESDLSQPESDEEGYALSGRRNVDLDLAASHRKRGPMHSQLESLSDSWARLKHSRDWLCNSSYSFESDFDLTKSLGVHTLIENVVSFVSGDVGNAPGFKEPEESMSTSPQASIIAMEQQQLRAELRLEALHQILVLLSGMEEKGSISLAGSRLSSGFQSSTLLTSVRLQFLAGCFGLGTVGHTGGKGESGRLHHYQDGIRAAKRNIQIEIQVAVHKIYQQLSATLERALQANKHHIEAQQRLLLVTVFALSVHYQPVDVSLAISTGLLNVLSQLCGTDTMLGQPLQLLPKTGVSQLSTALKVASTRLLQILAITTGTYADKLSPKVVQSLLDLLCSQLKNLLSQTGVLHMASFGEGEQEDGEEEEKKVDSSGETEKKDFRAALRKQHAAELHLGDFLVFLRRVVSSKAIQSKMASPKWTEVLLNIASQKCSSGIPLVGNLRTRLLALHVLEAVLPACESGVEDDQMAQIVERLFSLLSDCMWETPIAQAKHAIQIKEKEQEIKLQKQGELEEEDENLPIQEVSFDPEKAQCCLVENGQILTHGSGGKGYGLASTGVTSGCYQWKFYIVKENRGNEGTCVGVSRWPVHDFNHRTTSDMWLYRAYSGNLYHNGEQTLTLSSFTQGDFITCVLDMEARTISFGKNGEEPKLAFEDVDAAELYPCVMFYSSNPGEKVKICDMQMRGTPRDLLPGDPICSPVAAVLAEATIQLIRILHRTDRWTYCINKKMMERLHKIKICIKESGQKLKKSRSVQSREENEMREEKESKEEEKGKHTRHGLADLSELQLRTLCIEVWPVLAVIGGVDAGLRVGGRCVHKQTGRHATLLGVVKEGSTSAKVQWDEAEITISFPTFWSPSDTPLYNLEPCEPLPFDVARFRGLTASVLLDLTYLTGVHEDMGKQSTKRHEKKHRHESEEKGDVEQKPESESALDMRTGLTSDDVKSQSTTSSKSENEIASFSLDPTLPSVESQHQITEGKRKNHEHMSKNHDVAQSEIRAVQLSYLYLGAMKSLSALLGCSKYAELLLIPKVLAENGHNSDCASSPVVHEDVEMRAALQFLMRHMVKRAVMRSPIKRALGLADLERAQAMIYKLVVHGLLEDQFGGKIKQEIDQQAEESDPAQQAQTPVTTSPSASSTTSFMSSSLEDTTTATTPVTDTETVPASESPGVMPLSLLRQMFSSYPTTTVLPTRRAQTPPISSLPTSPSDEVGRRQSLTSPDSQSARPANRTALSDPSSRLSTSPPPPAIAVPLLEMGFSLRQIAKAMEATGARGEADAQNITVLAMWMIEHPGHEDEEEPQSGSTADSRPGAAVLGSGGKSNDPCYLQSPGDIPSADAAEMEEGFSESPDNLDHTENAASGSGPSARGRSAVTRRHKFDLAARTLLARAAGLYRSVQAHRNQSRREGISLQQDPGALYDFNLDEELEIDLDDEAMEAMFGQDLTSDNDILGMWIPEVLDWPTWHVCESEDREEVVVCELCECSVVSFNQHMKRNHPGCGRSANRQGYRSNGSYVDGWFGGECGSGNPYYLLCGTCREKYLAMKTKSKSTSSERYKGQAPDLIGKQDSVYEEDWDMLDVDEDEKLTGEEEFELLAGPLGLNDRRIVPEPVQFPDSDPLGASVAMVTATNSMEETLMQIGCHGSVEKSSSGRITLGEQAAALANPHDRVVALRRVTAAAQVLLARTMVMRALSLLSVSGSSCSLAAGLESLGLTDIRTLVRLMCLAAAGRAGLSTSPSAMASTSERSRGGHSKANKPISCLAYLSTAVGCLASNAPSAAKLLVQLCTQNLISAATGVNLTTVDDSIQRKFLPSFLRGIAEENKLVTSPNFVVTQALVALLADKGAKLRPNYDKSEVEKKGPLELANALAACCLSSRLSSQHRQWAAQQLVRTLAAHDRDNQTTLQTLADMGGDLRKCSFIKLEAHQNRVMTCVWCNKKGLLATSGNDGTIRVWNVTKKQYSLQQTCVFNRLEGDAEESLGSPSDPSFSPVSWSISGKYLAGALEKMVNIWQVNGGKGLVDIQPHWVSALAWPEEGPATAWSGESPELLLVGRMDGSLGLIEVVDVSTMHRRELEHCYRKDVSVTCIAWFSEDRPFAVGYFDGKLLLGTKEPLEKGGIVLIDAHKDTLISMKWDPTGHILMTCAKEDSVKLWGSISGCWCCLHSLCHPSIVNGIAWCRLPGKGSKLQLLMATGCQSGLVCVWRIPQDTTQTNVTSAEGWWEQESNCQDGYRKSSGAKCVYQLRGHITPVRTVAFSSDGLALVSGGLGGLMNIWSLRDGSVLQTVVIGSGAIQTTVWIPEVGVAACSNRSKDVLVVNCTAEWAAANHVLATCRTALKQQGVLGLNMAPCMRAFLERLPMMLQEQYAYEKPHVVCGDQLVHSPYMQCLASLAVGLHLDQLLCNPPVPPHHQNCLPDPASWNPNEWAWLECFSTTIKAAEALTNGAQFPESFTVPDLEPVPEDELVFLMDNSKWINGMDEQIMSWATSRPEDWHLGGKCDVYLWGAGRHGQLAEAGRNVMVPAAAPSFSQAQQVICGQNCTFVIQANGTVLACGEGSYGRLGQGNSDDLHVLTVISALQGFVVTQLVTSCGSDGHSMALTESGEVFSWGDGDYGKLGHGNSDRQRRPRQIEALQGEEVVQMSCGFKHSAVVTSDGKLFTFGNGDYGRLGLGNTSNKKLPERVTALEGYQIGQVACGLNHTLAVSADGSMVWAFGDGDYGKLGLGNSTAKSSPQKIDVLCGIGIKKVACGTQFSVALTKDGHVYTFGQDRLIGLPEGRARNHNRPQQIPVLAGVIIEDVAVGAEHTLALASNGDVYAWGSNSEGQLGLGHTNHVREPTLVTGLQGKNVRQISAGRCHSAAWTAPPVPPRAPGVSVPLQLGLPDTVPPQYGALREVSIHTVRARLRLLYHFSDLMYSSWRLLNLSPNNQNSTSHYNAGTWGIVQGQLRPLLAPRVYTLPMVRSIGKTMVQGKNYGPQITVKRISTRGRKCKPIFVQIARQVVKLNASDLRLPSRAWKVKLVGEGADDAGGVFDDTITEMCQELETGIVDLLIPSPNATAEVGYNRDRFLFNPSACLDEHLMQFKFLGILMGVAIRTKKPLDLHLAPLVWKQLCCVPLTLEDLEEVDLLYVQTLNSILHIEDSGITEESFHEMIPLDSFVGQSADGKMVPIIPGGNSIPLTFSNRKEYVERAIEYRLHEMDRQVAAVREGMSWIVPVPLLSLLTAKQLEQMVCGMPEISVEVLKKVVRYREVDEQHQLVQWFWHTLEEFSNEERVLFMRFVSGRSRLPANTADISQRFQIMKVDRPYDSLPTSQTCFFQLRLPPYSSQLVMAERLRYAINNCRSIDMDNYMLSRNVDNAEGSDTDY
UniProt P07305, whole entry, looked up: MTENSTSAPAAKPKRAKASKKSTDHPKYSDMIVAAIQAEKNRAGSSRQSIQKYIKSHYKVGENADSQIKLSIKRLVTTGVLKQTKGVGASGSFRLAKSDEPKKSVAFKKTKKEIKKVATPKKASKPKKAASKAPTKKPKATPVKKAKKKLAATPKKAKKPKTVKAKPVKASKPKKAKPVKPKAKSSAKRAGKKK
UniProt Q16836: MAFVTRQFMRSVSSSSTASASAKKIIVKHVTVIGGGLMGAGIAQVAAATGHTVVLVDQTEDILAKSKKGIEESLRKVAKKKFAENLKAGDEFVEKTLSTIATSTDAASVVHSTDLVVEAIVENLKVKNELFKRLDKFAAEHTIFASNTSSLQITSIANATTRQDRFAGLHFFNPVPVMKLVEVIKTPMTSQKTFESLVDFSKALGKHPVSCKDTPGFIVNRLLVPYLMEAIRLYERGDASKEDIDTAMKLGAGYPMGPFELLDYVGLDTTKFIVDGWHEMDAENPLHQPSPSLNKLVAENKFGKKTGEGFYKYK
UniProt P16402, whole entry, looked up: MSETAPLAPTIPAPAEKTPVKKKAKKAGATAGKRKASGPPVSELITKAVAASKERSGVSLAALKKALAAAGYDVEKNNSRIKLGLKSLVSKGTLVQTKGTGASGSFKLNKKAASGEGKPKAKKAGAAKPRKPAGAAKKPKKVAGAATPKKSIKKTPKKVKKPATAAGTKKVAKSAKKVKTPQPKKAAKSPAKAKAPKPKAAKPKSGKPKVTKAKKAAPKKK

Compound in the assay: c1cn2cc(-c3ccc4cn[nH]c4c3)nc(Nc3ccc(N4CCOCC4)cc3)c2n1 [entospletinib]
The assay is described as follows: log2 fold change, soluble protein after heating vs DMSO (PISA); higher = thermal stabilisation; K562 cells, 10 uM, 30 min; active = over 0.2 and 3.5 SD of the protein, either way, in both replicates (recomputed). Put shortly: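 K562 cells at 2×10^6 cells/mL were exposed to 10 μM compound for 30 min, then aliquots were heated for 3 min across 48°C-58°C, pooled, and extracted in PBS containing 0.5% NP-40 at 4°C. The supernatant after 21,000xg for 90 min was taken as soluble protein and measured by TMTpro 16plex LC-MS/MS with channel sums equalised. Thermal stability is reported relative to control samples, with values from duplicates. Fold changes are given on a log2 scale.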
Take GYS1 (UniProt P13807): the log2 fold change was active: 0.782.
For GYPA (UniProt P02724) the value was inactive: 0.015; for GTF2H2 (UniProt Q13888), inactive: 0.036.
HEMGN (UniProt Q9BXL5): the log2 fold change was inactive: 0.016.
Then GTSE1 (UniProt Q9NYZ3), with inactive: -0.137; and HBS1L (UniProt Q9Y450), with inactive: -0.013; and GSTM3 (UniProt P21266), with inactive: -0.059.
For HCLS1 (UniProt P14317) the value was inactive: 0.028; for HERC1 (UniProt Q15751), inactive: 0.003; for GSPT1 isoform 3 (UniProt P15170), inactive: 0.049.
For HARS (UniProt P12081) the value was inactive: -0.019; for GSTK1 (UniProt Q9Y2Q3), inactive: -0.059.
In the case of HBS1L isoform 2 (UniProt Q9Y450), the log2 fold change was inactive: -0.056.
Then GTF2F2 (UniProt P13984), with inactive: 0.001; and HDAC3 isoform 2 (UniProt O15379), with inactive: -0.057; and GTSF1 (UniProt Q8WW33), with inactive: -0.036.
Then GTF2I (UniProt P78347), with inactive: 0.157; and HEXIM1 (UniProt O94992), with inactive: 0.04.
Then H6PD (UniProt O95479), with inactive: -0.039; and HECTD3 (UniProt Q5T447), with inactive: 0.15.
Regarding HAUS1 (UniProt Q96CS2), the log2 fold change was inactive: 0.087.
For the target H1-0 (UniProt P07305), the log2 fold change was inactive: -0.115.
Then HADH isoform 2 (UniProt Q16836), with inactive: 0.043; and HDAC4 (UniProt P56524), with inactive: 0.137.
Turning to HAUS3 (UniProt Q68CZ6), the log2 fold change was inactive: 0.055.
Turning to GTPBP4 (UniProt Q9BZE4), the log2 fold change is inactive: 0.172.
Then GTPBP8 (UniProt Q8N3Z3), with inactive: -0.026; and HARS2 (UniProt P49590), with inactive: 0.005; and H1-3 (UniProt P16402), with inactive: 0.054.
For HACD3 (UniProt Q9P035), the log2 fold change was inactive: 0.005.

Source of the values: the supplement of paper PMC10849652.
